Some results were stated once for a whole list of compounds, not compound by compound.
Test system: diabetic mice
Experiment: Blood glucose-lowering by s.c. depots of single agonist fusions in diabetic mice, single injection
Assay type: in vivo
Conditions: s.c. depot

| Molecule | duration of blood glucose-lowering effects |
| --- | --- |
| GLP1-ELP: Single agonist control: GLP-1 analog fused to ELP of 120 VPGXaaG repeats, 4:1 Val:Ala; SEQ ID NO:16 (protein) AAHGEGTFTSDVSSYLEEQAAKEFIAWLVKGAGVGVPGVGVPGAGVPGVGVPGVGVPGVGVPGVGVPGAGVPGVGVPGVGVPGVGVPGVGVPGAGVPGVGVPGVGVPGVGVPGVGVPGAGVPGVGVPGVGVPGVGVPGVGVPGAGVPGVGVPGVGVPGVGVPGVGVPGAGVPGVGVPGVGVPGVGVPGVGVPGAGVPGVGVPGVGVPGVGVPGVGVPGAGVPGVGVPGVGVPGVGVPGVGVPGAGVPGVGVPGVGVPGVGVPGVGVPGAGVPGVGVPGVGVPGVGVPGVGVPGAGVPGVGVPGVGVPGVGVPGVGVPGAGVPGVGVPGVGVPGVGVPGVGVPGAGVPGVGVPGVGVPGVGVPGVGVPGAGVPGVGVPGVGVPGVGVPGVGVPGAGVPGVGVPGVGVPGVGVPGVGVPGAGVPGVGVPGVGVPGVGVPGVGVPGAGVPGVGVPGVGVPGVGVPGVGVPGAGVPGVGVPGVGVPGVGVPGVGVPGAGVPGVGVPGVGVPGVGVPGVGVPGAGVPGVGVPGVGVPGVGVPGVGVPGAGVPGVGVPGVGVPGVGVPGVGVPGAGVPGVGVPGVGVPGVGVPGVGVPGAGVPGVGVPGVGVPGVGVPGVGVPGAGVPGVGVPGVGVPG | at least 5 days |
| ELP-FGF21: Single agonist control: ELP (120 repeats, 4:1 Val:Ala) fused to mutated murine FGF21; SEQ ID NO:14 (protein) GVGVPGVGVPGAGVPGVGVPGVGVPGVGVPGVGVPGAGVPGVGVPGVGVPGVGVPGVGVPGAGVPGVGVPGVGVPGVGVPGVGVPGAGVPGVGVPGVGVPGVGVPGVGVPGAGVPGVGVPGVGVPGVGVPGVGVPGAGVPGVGVPGVGVPGVGVPGVGVPGAGVPGVGVPGVGVPGVGVPGVGVPGAGVPGVGVPGVGVPGVGVPGVGVPGAGVPGVGVPGVGVPGVGVPGVGVPGAGVPGVGVPGVGVPGVGVPGVGVPGAGVPGVGVPGVGVPGVGVPGVGVPGAGVPGVGVPGVGVPGVGVPGVGVPGAGVPGVGVPGVGVPGVGVPGVGVPGAGVPGVGVPGVGVPGVGVPGVGVPGAGVPGVGVPGVGVPGVGVPGVGVPGAGVPGVGVPGVGVPGVGVPGVGVPGAGVPGVGVPGVGVPGVGVPGVGVPGAGVPGVGVPGVGVPGVGVPGVGVPGAGVPGVGVPGVGVPGVGVPGVGVPGAGVPGVGVPGVGVPGVGVPGVGVPGAGVPGVGVPGVGVPGVGVPGVGVPGAGVPGVGVPGVGVPGVGVPGVGVPGAGVPGVGVPGVGVPGVGVPGVGVPGAGVPGVGVPGVGVPGAYPIPDSSPLLQFGGQVRQRYLYTDDDQDTEAHLEIREDGTVVGAAHRSPESLLELKALKPGVIQILGVKASRFLCQQPDGALYGSPHFDPEACSFRERLLEDGYNVYQSEAHGLPLRLPQKDSPNQDATSWGPVRFLPMPGLLHEPQDQAGFLPPEPPDVGSSDPLSMVEGSQGRSPSYASG | at least 5 days |
